{"source": "PubChem BioAssay AID1508597 | Cure First | 2020", "screen": "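Knock-downs altering ovarian cancer cell survival with or without PARP inhibitor rucaparib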 (primary screen)", "cell system": "human ovarian carcinoma lines grown from tumours: OCI-P5x (papillary serous) and OCI-C5x (clear cell)", "reagents": "siRNA pool against human genes, 1.25 pmol siRNA per well", "duration": "72 h or 96 h, depending on the cell culture", "treatment": "rucaparib 20 µM (about IC30) or vehicle, present until read-out", "read-out": "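ATP luminescence measured at 72 or 96 h according to the culture, then normalised and expressed as percent viability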", "direction": "viability, normalised: higher = more viable cells remaining", "active means": "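Active when normalised viability falls below 80 percent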", "meaning of the calls": "active = viability under 80%; inactive = viability 80% or more", "note": "The whole screen tested about 2,100 reagents; below is a random part of them. 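Calls flag viability under 80% in either arm, not effects specific to rucaparib; the reference for percent is not stated.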 No sequences are given here. The record does not give: the 100% reference."}
{"target":"KDM4C (GeneID 23081)","rucaparib or vehicle":"Rucaparib","cell line":"OCI-C5x (clear cell)","technical replicate":"1","viability, normalised (%)":58.8,"Outcome":"active"}
{"target":"KDM4C (GeneID 23081)","rucaparib or vehicle":"Rucaparib","cell line":"OCI-C5x (clear cell)","technical replicate":"2","viability, normalised (%)":55.6,"Outcome":"active"}
{"target":"KDM4C (GeneID 23081)","rucaparib or vehicle":"Rucaparib","cell line":"OCI-C5x (clear cell)","technical replicate":"3","viability, normalised (%)":46.3,"Outcome":"active"}
{"target":"KDM4C (GeneID 23081)","rucaparib or vehicle":"Rucaparib","cell line":"OCI-P5x (serous)","technical replicate":"1","viability, normalised (%)":53.9,"Outcome":"active"}
{"target":"KDM4C (GeneID 23081)","rucaparib or vehicle":"Rucaparib","cell line":"OCI-P5x (serous)","technical replicate":"2","viability, normalised (%)":41.4,"Outcome":"active"}
{"target":"KDM4C (GeneID 23081)","rucaparib or vehicle":"Rucaparib","cell line":"OCI-P5x (serous)","technical replicate":"3","viability, normalised (%)":50.8,"Outcome":"active"}
{"target":"KDM4C (GeneID 23081)","rucaparib or vehicle":"Vehicle","cell line":"OCI-C5x (clear cell)","technical replicate":"1","viability, normalised (%)":57.2,"Outcome":"active"}
{"target":"KDM4C (GeneID 23081)","rucaparib or vehicle":"Vehicle","cell line":"OCI-C5x (clear cell)","technical replicate":"2","viability, normalised (%)":46.4,"Outcome":"active"}
{"target":"KDM4C (GeneID 23081)","rucaparib or vehicle":"Vehicle","cell line":"OCI-C5x (clear cell)","technical replicate":"3","viability, normalised (%)":51.7,"Outcome":"active"}
{"target":"KDM4C (GeneID 23081)","rucaparib or vehicle":"Vehicle","cell line":"OCI-P5x (serous)","technical replicate":"1","viability, normalised (%)":59,"Outcome":"active"}
{"target":"KDM4C (GeneID 23081)","rucaparib or vehicle":"Vehicle","cell line":"OCI-P5x (serous)","technical replicate":"2","viability, normalised (%)":69.1,"Outcome":"active"}
{"target":"KDM4C (GeneID 23081)","rucaparib or vehicle":"Vehicle","cell line":"OCI-P5x (serous)","technical replicate":"3","viability, normalised (%)":69.1,"Outcome":"active"}
{"target":"GDPD2 (GeneID 54857)","rucaparib or vehicle":"Rucaparib","cell line":"OCI-C5x (clear cell)","technical replicate":"1","viability, normalised (%)":35.6,"Outcome":"active"}
{"target":"GDPD2 (GeneID 54857)","rucaparib or vehicle":"Rucaparib","cell line":"OCI-C5x (clear cell)","technical replicate":"2","viability, normalised (%)":36,"Outcome":"active"}
{"target":"GDPD2 (GeneID 54857)","rucaparib or vehicle":"Rucaparib","cell line":"OCI-C5x (clear cell)","technical replicate":"3","viability, normalised (%)":37.3,"Outcome":"active"}
{"target":"GDPD2 (GeneID 54857)","rucaparib or vehicle":"Rucaparib","cell line":"OCI-P5x (serous)","technical replicate":"1","viability, normalised (%)":67.1,"Outcome":"active"}
{"target":"GDPD2 (GeneID 54857)","rucaparib or vehicle":"Rucaparib","cell line":"OCI-P5x (serous)","technical replicate":"2","viability, normalised (%)":76.4,"Outcome":"active"}
{"target":"GDPD2 (GeneID 54857)","rucaparib or vehicle":"Rucaparib","cell line":"OCI-P5x (serous)","technical replicate":"3","viability, normalised (%)":54.8,"Outcome":"active"}
{"target":"GDPD2 (GeneID 54857)","rucaparib or vehicle":"Vehicle","cell line":"OCI-C5x (clear cell)","technical replicate":"1","viability, normalised (%)":33.1,"Outcome":"active"}
{"target":"GDPD2 (GeneID 54857)","rucaparib or vehicle":"Vehicle","cell line":"OCI-C5x (clear cell)","technical replicate":"2","viability, normalised (%)":28.4,"Outcome":"active"}
{"target":"GDPD2 (GeneID 54857)","rucaparib or vehicle":"Vehicle","cell line":"OCI-C5x (clear cell)","technical replicate":"3","viability, normalised (%)":35.6,"Outcome":"active"}
{"target":"GDPD2 (GeneID 54857)","rucaparib or vehicle":"Vehicle","cell line":"OCI-P5x (serous)","technical replicate":"1","viability, normalised (%)":91.4,"Outcome":"inactive"}
{"target":"GDPD2 (GeneID 54857)","rucaparib or vehicle":"Vehicle","cell line":"OCI-P5x (serous)","technical replicate":"2","viability, normalised (%)":84.2,"Outcome":"inactive"}
{"target":"GDPD2 (GeneID 54857)","rucaparib or vehicle":"Vehicle","cell line":"OCI-P5x (serous)","technical replicate":"3","viability, normalised (%)":104,"Outcome":"inactive"}
{"target":"DDX6 (GeneID 1656)","rucaparib or vehicle":"Rucaparib","cell line":"OCI-C5x (clear cell)","technical replicate":"1","viability, normalised (%)":53.2,"Outcome":"active"}
{"target":"DDX6 (GeneID 1656)","rucaparib or vehicle":"Rucaparib","cell line":"OCI-C5x (clear cell)","technical replicate":"2","viability, normalised (%)":44.7,"Outcome":"active"}
{"target":"DDX6 (GeneID 1656)","rucaparib or vehicle":"Rucaparib","cell line":"OCI-C5x (clear cell)","technical replicate":"3","viability, normalised (%)":45.3,"Outcome":"active"}
{"target":"DDX6 (GeneID 1656)","rucaparib or vehicle":"Rucaparib","cell line":"OCI-P5x (serous)","technical replicate":"1","viability, normalised (%)":62.2,"Outcome":"active"}
{"target":"DDX6 (GeneID 1656)","rucaparib or vehicle":"Rucaparib","cell line":"OCI-P5x (serous)","technical replicate":"2","viability, normalised (%)":66.2,"Outcome":"active"}
{"target":"DDX6 (GeneID 1656)","rucaparib or vehicle":"Rucaparib","cell line":"OCI-P5x (serous)","technical replicate":"3","viability, normalised (%)":68.7,"Outcome":"active"}
{"target":"DDX6 (GeneID 1656)","rucaparib or vehicle":"Vehicle","cell line":"OCI-C5x (clear cell)","technical replicate":"1","viability, normalised (%)":42.9,"Outcome":"active"}
{"target":"DDX6 (GeneID 1656)","rucaparib or vehicle":"Vehicle","cell line":"OCI-C5x (clear cell)","technical replicate":"2","viability, normalised (%)":51.5,"Outcome":"active"}
{"target":"DDX6 (GeneID 1656)","rucaparib or vehicle":"Vehicle","cell line":"OCI-C5x (clear cell)","technical replicate":"3","viability, normalised (%)":38,"Outcome":"active"}
{"target":"DDX6 (GeneID 1656)","rucaparib or vehicle":"Vehicle","cell line":"OCI-P5x (serous)","technical replicate":"1","viability, normalised (%)":47.9,"Outcome":"active"}
{"target":"DDX6 (GeneID 1656)","rucaparib or vehicle":"Vehicle","cell line":"OCI-P5x (serous)","technical replicate":"2","viability, normalised (%)":48.9,"Outcome":"active"}
{"target":"DDX6 (GeneID 1656)","rucaparib or vehicle":"Vehicle","cell line":"OCI-P5x (serous)","technical replicate":"3","viability, normalised (%)":63.9,"Outcome":"active"}
